The values that follow come from patent US11135214B2, “Methods for enhancing the bio availability and exposure of a voltage-gated potassium channel opener” (priority 2018, dated 2021).

Series [1] in a line: Open-label randomized two-period fed/fasted crossover study, plasma PK. It counts as in vivo, human. The note with it: fed, 20 mg oral, 3.0 h, Maximum. The source says: The study consisted of two Treatment Periods, Period 1 and Period 2. Each Treatment Period consisted of 7 days, with the dosing of Compound A occurring on Day 1. The two treatment periods were separated by a washout period of 10 days. The subjects were randomized into two groups. During Treatment Period 1, one group received an oral dose of Compound A while fasted and the other group received an oral dose of Compound A when fed. The group which fasted in Treatment Period 1 was fed in Treatment Period 2 and vice versa.
On Day 1 of each Treatment Period, each subject orally received 20 mg of Compound A (4 capsules with 5 mg of Compound A in each capsule).
During the fed period, following an overnight fast of at least 10 hours, a standard high fat, high calorie breakfast was given as per FDA guidance; the breakfast was given 30 minutes prior to the scheduled dosing time, and was completed 10 minutes before dosing. A representative breakfast included 2 slices of buttered toast, 2 fried eggs, 2 strips of bacon, 4 oz. of hash brown potatoes, and 8 oz. of whole milk.
During the fasted period, dosing occurred after an overnight fast of at least 10 hours. No food was allowed for 4 hours post-dose in either the fed or fasted period. Water was allowed as desired except for one hour before and after dosing. […]

The nature of series [2]: TMS crossover study, pharmacokinetic analysis. Conditions: individual subjects. Type of series: in vivo, human. How it is done:
A randomized, double-blind, placebo-controlled, transcranial magnetic stimulation (TMS) crossover study investigated the safety, tolerability, pharmacokinetics (PK), and pharmacodynamics (PD) of single doses of Compound A in healthy right-handed male subjects.
Twenty healthy right-handed male subjects were enrolled and randomized in a blinded fashion to receive a single oral dose of 20 mg Compound A or placebo (1:1 randomization ratio) on Day 1, then were crossed over to receive a single dose of the other treatment on Day 7.
Subjects were screened within 27 days prior to entering the study on Day 1. For Period 1, subjects were admitted to the study unit and dosed on Day 1, and discharged on Day 2. For Period 2, following a washout of 6 days, the same subjects were again admitted to the study unit and dosed on Day 7, and discharged on Day 8. All subjects returned to the clinical unit for an outpatient visit on Day 14, and received a follow-up telephone call on Day 37.
Subjects were dosed in a fed state, but the timing of dosing relative to meals was changed during the study, and varied between a high fat or standard meal eaten either 2 h or 30 minutes prior to dosing, and a high fat or standard meal eaten 1 h or 2.5 h after dosing.
The PK parameters for this study were summarized in two ways. Firstly, PK parameters were calculated where possible using the PK samples collected during each 24 h sampling period for Period 1 and Period 2 separately. Secondly, PK parameters were determined using samples beyond the 24 h sampling period (i.e., from Day 7/8 and/or Day 14). For subjects who received Compound A in the first period, PK samples taken prior to placebo treatment provided additional PK timepoints at >24 h. For subjects who received Compound A in the second period, there was no >24 h PK timepoint until a Day 14 PK sample was added. […] The full PK profile data set consists of the 16 subjects for whom PK samples were taken at >24 h post-dose. For discussion of the PK parameters below, the full PK profile data set was generally used, because it allowed more accurate estimation of PK parameters.
Initially, subjects were dosed 2 hours after a high fat meal with a relatively high fat lunch provided 1 hour after dosing. After blinded review of the PK profiles in the initial 8 subjects, the fat content of the lunch was reduced in an attempt to reduce the time to Tmax, so that the Cmax would fall within the timeframe of TMS measurements. In addition, the timing of the meal relative to dose was changed from 2 hours prior, to 30 minutes prior to dose and subsequently the fat content of the breakfast was reduced. All these changes were made in attempts to provide higher plasma levels during the TMS assessment periods. The timing and type of meal for each subject is specified in Table 13. […] As such the PK data is presented without categorization according to meal content, or relative timing of the meal.

Several values for one entry are separate records, joined by “and”; a condition that tells them apart may be missing. Identical values can stand only once. This continues a long series; more values of the same kind are listed elsewhere.

For `Cc1cc(N2CCc3cc(F)ccc3C2)cc(C)c1NC(=O)CC(C)(C)C` [Compound A, N-[4-(6-fluoro-3,4-dihydro-1H-isoquinolin-2-yl)-2,6-dimethylphenyl]-3,3-dimethylbutanamide], the “Compound A Concentration” value in series [1] amounted to 104 ng/mL. Moreover, the “Compound A Plasma Concentration” value in series [2] (Compound A Treatment Period, 20 mg, 2 h, 5 minutes before TMS) was 64.2 ng/mL; in series [2] (Compound A Treatment Period, 20 mg, 4 h, 5 minutes before TMS), 35.7 ng/mL and 6.08 ng/mL and 76.5 ng/mL; in series [2] (Compound A Treatment Period, 20 mg, 6 h, 5 minutes before TMS), 32.8 ng/mL; in series [2] (Placebo Treatment Period (carry-over), 2 h), 3.11 ng/mL and 6.05 ng/mL; in series [2] (Placebo Treatment Period (carry-over), 4 h) it was 2.77 ng/mL and 7 ng/mL; in series [2] (Placebo Treatment Period (carry-over), 6 h), 2.87 ng/mL.
